Test results: publication PMC12003857
Results are given in words; binding and its absence hold for the method and conditions named. In cells and extracts the contact can be indirect. Some entries that bind do so weakly or less than the wild type.

Chains of the proteins cited; added tags and fusions are not shown.
UniProt Q96RU2: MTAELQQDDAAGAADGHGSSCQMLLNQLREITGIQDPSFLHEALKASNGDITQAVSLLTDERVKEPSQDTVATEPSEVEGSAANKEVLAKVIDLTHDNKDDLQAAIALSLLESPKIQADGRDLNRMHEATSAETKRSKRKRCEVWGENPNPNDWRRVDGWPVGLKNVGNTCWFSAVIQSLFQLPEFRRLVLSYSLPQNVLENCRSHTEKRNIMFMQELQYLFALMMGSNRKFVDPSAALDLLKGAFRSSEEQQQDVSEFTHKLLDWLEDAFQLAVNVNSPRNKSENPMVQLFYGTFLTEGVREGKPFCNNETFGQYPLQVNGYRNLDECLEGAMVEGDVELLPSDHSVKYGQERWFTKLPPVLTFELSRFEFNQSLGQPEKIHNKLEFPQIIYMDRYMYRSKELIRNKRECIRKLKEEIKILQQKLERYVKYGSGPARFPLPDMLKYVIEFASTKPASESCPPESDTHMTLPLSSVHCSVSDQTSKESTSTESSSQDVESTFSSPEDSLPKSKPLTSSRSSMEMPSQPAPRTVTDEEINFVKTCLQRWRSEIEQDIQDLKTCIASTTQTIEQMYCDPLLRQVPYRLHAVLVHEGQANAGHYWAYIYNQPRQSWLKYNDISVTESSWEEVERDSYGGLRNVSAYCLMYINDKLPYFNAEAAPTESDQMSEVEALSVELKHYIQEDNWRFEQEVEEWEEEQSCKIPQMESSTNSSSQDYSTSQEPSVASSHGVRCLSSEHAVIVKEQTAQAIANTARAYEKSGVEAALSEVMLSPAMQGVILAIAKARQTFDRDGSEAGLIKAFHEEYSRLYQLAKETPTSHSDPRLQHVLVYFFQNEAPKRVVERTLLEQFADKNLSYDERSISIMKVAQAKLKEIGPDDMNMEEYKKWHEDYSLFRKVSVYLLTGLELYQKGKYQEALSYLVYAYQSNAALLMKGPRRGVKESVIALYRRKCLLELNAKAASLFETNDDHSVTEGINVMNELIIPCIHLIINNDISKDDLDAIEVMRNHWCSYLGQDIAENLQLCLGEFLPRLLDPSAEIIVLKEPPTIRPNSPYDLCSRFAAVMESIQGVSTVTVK
UniProt Q969H0: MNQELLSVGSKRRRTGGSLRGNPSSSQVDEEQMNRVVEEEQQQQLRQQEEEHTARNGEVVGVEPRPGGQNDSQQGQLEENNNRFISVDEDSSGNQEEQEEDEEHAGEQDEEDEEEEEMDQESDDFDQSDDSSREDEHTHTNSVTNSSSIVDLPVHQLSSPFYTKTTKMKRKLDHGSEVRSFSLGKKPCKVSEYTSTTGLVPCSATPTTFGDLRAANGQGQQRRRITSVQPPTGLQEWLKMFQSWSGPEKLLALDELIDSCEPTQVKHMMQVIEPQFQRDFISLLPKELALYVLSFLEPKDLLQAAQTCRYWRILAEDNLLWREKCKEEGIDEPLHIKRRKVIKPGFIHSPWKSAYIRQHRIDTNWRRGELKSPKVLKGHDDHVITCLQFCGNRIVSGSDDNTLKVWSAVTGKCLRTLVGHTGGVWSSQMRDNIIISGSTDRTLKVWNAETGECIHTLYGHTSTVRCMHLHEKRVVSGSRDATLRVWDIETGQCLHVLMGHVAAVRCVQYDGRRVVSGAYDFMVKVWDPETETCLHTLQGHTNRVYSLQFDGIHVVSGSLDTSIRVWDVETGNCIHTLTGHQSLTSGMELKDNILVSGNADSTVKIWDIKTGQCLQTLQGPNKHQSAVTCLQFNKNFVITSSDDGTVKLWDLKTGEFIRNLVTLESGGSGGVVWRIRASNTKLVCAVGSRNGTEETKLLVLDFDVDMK
UniProt Q9UHP3: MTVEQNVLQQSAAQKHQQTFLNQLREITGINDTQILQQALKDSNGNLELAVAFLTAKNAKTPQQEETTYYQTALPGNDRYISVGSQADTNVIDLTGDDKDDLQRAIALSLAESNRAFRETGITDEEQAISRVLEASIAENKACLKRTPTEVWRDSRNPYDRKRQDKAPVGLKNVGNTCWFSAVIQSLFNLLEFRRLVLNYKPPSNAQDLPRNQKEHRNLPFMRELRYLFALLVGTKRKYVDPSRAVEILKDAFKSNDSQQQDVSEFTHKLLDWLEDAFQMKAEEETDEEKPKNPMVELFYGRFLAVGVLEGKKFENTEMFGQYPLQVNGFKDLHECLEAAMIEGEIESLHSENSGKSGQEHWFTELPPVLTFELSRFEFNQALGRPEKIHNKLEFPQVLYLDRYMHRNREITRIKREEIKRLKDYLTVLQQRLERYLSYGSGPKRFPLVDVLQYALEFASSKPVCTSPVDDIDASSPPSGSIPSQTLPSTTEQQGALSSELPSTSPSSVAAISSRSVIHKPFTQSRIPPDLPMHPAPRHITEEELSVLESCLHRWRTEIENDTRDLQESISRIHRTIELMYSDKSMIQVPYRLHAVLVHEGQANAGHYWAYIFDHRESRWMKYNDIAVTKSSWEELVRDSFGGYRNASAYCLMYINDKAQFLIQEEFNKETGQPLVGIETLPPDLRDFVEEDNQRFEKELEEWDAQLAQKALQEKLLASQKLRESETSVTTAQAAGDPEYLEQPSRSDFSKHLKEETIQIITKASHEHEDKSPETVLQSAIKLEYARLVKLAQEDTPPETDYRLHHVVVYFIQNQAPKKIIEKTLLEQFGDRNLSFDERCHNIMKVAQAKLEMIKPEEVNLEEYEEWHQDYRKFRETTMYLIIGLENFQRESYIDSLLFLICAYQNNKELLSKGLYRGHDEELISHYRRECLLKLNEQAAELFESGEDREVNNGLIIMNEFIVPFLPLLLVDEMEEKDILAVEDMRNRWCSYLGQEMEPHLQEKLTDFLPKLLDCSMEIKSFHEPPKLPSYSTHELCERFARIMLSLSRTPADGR
UniProt P48436: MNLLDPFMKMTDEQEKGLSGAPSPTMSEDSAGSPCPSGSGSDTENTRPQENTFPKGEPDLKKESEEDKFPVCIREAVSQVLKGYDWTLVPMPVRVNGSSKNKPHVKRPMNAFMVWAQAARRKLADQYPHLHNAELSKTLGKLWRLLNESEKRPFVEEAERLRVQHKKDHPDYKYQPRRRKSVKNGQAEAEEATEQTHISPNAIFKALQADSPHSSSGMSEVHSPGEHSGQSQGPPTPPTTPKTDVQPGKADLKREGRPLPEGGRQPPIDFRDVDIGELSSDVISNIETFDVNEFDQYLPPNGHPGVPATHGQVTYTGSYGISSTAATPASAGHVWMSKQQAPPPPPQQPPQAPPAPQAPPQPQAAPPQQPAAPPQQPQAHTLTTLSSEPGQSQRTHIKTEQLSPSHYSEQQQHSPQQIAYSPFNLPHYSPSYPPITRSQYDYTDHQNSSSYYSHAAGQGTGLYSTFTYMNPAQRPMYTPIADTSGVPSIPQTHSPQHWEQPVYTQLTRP

Experiments:
[1] = biological target: HA-USP28 (full-length, pcDNA3.1) (human) (UniProt Q96RU2); test: co-IP; HEK293T co-transfected with full-length or truncated HA-USP28 and Flag-SOX9; IP with anti-HA beads, co-eluted SOX9 detected with anti-Flag antibody
[2] = biological target: F-box and WD repeat domain-containing 7 (FBXW7), endogenous (human (endogenous in SKOV3)) (UniProt Q969H0); test: co-IP; endogenous proteins; 800 ug cell extract with 5 uL primary antibody or normal IgG overnight, protein A/G magnetic beads 2 h at 4 °C; SKOV3, UWB1.289 and SKOV3/Ola cells, with or without olaparib treatment
[3] = biological target: USP28 (endogenous) (human (endogenous in SKOV3, UWB1.289)) (UniProt Q96RU2); test: as above
USP25 (endogenous) = USP25 (endogenous) (UniProt Q9UHP3); test: as above
[4] = biological target: SOX9 (endogenous) (human (endogenous in SKOV3, UWB1.289)) (UniProt P48436); test: as above

Substance: Flag-SOX9 (full-length, pcDNA3.1) (from UniProt P48436 1-509)
- binding [1]: binds

Substance: SOX9 (endogenous) (from UniProt P48436 1-509)
- binding [2]: binds
- binding [3]: binds
- binding (USP25 (endogenous)): no binding

Substance: USP25 (endogenous) (from UniProt Q9UHP3 1-1055) (enzyme)
- binding [4]: no binding
